Data on 38 targets can be found in the supplement of paper PMC12067093, “Discovery and optimisation of a covalent ligand for TRIM25 and its application to targeted protein ubiquitination” (Chemical Science, 2025).

The chains behind the UniProt entries cited, without tags or fusion partners. Where a name states a change or a piece, a line headed by the entry shows the natural chain unless it says otherwise.
UniProt Q8WWP7: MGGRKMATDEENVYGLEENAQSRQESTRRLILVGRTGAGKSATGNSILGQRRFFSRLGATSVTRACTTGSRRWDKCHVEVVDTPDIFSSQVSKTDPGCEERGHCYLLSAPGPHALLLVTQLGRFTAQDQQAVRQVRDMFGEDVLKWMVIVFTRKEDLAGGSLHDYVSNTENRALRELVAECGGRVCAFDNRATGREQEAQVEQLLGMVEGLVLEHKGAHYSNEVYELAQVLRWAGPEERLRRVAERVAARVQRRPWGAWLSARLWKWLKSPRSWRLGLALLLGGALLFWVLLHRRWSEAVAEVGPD
UniProt Q92616, whole entry, looked up: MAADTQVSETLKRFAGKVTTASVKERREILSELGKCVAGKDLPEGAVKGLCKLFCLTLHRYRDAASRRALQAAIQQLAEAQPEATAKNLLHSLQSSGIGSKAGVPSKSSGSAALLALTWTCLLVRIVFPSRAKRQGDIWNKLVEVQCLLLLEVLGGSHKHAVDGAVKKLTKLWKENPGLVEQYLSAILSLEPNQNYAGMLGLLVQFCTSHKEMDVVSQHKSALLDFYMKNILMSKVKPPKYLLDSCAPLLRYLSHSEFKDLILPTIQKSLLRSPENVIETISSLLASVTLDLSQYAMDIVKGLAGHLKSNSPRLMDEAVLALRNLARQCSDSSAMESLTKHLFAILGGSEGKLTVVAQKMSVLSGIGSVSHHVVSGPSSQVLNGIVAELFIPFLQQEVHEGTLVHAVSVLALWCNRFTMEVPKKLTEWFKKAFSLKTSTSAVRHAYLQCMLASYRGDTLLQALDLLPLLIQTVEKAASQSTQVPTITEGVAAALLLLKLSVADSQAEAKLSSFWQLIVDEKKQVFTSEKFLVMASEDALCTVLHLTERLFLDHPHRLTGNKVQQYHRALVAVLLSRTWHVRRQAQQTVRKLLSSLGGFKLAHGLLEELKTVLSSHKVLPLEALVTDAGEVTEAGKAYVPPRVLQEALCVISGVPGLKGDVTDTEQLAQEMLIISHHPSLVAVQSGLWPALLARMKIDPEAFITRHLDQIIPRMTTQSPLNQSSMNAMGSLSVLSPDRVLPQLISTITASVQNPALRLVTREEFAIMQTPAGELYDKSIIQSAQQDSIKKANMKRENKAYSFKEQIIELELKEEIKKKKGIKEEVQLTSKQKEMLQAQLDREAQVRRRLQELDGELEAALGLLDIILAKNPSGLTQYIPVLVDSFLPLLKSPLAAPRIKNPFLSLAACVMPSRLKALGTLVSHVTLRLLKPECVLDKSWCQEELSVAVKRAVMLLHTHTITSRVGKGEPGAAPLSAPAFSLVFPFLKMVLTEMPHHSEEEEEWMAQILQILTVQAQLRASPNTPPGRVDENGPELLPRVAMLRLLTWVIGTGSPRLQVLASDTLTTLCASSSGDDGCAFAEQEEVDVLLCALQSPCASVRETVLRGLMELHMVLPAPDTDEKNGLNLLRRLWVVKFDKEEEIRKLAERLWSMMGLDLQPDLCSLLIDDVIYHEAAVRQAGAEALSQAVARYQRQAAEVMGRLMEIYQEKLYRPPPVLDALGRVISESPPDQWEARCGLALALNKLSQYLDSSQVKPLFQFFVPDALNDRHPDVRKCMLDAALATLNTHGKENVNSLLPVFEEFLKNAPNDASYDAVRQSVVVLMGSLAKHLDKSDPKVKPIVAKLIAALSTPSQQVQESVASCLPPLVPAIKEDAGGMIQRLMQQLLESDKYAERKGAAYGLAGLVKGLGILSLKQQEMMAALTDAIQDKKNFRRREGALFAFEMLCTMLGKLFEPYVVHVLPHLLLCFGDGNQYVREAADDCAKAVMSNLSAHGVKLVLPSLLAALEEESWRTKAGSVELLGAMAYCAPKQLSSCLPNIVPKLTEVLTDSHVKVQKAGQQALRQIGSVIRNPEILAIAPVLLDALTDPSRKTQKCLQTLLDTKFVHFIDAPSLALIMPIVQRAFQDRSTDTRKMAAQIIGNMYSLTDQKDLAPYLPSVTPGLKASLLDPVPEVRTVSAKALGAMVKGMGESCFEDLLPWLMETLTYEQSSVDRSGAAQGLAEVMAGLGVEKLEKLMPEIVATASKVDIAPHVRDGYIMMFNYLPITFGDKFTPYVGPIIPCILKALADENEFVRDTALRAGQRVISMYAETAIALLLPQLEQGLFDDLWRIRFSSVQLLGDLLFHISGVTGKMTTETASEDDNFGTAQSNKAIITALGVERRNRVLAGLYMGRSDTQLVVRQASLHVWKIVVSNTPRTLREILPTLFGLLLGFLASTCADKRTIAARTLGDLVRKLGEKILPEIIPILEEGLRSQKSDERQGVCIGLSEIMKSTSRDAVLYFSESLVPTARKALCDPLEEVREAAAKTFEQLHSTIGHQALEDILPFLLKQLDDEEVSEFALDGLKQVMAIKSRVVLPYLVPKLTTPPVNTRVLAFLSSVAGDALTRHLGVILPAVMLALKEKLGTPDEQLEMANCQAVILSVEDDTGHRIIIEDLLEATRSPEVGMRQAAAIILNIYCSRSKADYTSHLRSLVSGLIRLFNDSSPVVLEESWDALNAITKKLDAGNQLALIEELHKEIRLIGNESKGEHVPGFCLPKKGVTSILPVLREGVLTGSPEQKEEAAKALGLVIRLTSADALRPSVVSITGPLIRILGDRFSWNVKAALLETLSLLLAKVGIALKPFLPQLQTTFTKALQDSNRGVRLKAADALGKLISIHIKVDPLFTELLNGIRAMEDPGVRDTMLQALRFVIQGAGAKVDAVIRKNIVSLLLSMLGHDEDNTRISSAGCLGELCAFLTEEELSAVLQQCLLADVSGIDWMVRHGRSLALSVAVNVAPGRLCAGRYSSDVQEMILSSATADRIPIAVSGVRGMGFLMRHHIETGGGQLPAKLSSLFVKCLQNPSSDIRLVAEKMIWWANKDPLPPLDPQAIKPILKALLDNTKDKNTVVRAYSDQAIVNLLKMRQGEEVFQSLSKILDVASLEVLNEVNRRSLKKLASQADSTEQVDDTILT
UniProt Q10472: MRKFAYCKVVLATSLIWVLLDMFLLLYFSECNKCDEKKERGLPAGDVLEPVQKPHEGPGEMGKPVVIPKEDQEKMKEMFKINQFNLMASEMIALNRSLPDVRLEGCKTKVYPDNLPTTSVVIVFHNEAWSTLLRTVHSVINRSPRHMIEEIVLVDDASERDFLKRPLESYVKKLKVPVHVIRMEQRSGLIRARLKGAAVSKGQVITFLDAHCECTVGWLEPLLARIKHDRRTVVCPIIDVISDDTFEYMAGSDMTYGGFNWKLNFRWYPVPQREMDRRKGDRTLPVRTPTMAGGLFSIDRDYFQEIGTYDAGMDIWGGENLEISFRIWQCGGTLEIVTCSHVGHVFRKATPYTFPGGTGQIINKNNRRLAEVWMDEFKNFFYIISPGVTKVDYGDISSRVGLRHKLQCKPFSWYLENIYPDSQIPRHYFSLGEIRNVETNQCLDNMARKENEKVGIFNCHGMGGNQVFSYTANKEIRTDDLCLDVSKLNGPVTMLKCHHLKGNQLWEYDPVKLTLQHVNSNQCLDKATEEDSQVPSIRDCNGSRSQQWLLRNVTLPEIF
UniProt Q8IXK2: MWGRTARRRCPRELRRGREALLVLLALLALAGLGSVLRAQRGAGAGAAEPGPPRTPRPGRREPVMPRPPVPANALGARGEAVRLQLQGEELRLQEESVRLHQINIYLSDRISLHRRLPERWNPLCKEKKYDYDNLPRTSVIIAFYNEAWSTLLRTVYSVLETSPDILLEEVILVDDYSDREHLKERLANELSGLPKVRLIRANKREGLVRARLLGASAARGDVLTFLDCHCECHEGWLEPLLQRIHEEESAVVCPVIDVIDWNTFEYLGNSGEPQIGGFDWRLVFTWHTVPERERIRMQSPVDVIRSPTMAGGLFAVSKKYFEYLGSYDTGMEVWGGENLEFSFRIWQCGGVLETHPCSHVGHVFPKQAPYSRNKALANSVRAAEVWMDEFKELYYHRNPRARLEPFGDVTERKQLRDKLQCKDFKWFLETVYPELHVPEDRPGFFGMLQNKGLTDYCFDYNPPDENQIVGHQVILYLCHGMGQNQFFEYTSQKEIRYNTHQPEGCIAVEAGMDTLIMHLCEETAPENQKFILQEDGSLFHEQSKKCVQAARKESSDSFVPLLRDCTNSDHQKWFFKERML
UniProt Q8TEQ6: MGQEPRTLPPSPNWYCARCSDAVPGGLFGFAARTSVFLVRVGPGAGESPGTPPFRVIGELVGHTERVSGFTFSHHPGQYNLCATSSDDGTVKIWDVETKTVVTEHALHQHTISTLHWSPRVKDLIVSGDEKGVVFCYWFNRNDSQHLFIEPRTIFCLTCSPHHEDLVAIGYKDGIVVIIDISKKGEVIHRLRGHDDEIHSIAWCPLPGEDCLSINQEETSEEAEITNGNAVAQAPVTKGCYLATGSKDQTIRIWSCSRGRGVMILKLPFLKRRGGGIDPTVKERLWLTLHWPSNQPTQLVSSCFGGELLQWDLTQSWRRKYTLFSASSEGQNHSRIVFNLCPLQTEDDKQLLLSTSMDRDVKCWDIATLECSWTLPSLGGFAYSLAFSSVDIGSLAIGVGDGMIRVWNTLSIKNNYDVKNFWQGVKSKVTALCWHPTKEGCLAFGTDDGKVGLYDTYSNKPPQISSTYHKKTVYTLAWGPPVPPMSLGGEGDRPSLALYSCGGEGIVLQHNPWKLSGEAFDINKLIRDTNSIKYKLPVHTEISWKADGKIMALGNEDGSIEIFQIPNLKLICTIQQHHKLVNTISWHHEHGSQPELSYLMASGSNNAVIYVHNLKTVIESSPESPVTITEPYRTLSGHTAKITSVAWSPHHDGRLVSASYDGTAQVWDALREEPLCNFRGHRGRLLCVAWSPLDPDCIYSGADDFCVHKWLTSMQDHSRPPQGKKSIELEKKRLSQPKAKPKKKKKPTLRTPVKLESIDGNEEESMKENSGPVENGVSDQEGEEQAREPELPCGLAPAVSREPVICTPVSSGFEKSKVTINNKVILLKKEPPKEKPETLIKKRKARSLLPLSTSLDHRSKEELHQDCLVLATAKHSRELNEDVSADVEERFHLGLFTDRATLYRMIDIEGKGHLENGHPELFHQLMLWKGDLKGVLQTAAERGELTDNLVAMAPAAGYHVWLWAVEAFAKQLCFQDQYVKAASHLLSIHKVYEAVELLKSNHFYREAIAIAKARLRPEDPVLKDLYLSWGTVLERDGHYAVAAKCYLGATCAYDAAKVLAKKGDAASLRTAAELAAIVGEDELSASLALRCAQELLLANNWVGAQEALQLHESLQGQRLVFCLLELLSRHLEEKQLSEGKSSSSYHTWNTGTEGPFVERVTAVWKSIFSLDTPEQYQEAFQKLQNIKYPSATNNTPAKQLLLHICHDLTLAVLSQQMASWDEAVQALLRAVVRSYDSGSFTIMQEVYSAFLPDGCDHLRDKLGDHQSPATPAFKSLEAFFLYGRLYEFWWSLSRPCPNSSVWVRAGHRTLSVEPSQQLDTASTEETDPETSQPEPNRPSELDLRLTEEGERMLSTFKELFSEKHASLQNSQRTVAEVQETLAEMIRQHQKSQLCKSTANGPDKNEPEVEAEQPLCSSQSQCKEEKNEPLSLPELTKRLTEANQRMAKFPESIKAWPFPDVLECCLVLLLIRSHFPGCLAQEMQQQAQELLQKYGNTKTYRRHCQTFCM
UniProt P48507: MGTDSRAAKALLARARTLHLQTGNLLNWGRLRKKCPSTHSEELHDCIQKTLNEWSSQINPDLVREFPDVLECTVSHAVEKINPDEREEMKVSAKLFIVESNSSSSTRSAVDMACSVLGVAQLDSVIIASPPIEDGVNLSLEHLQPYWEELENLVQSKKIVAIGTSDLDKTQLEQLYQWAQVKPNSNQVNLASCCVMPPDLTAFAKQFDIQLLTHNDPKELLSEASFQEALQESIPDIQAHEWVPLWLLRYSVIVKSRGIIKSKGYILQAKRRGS
UniProt Q9H2C0: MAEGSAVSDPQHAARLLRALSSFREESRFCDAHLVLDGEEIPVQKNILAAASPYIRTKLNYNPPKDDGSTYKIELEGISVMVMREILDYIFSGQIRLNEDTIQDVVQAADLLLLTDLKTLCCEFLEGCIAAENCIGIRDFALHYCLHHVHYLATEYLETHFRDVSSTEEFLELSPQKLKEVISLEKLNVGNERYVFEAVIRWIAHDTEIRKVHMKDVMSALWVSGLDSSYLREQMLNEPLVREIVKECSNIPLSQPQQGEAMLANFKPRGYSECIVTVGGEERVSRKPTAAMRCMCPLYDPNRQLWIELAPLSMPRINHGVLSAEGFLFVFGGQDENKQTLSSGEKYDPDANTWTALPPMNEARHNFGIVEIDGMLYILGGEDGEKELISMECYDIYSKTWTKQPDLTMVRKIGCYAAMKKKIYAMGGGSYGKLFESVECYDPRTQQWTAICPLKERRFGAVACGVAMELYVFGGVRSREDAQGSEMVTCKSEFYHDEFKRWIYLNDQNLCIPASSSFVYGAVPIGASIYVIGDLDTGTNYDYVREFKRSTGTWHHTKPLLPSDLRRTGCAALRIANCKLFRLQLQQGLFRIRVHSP

This is one part of the list.

Compound in this experiment: CC1Cc2ccccc2N1C(=O)C1CCCN(C1)C(=O)CCl (mixture of isomers) [TRIM25 ligand 11 (diastereomer mixture)]
The experiment can be described thus: probe-labelled cysteine peptide fold change vs DMSO (competition) (log2 fold change); higher = less target engagement (more negative = stronger competition). The settings on record: THP-1, incubation time: 4 h.
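Also: competitive chemoproteomic profiling in live THP-1 cells with an iodoacetamide desthiobiotin (IA-DTB) probe, comparing probe-labelled peptide intensities in compound-treated cells against DMSO-treated controls.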

With “GIMAP1_Q8WWP7_181_ELVAECGGR (UniProt Q8WWP7)”, the “probe-labelled cysteine peptide fold change” value reads like this: (10 µM) -0.114; (50 µM) 0.0386.
The matching figures for “GHDC_Q8N2G8_523_HLAQCLQER (UniProt Q8N2G8)”: -0.0423 and -0.00951.
On to “GCN1_Q92616_2558_CLQNPSSDIR (UniProt Q92616)”, for which the “probe-labelled cysteine peptide fold change” value is 0.0855 (10 µM) and 0.113 (50 µM).
The matching figures for “GALNT1_Q10472_214_GQVITFLDAHCECTVGWLEPLLAR (UniProt Q10472)”: 0.16 and 0.101.
The matching figures for “GIPC3_Q8TF64_152+168_IEAVCVGDSIEAINDHSIVGCR (UniProt Q8TF64)”: -0.067 and -0.00794.
The matching figures for “GGA3_Q9NZ52_255_ELFDQCENK (UniProt Q9NZ52)”: 0.0375 and 0.0992.
On to “GALNT12_Q8IXK2_233_GDVLTFLDCHCECHEGWLEPLLQR (UniProt Q8IXK2)”, for which the “probe-labelled cysteine peptide fold change” value was -0.107 (10 µM) and -0.0103 (50 µM).
The matching figures for “GAPDH_P04406_247_VPTANVSVVDLTCRLEK (UniProt P04406)”: -0.778 and -0.389.
As to “GGPS1_O95749_205_SFCEDLTEGK (UniProt O95749)”, the “probe-labelled cysteine peptide fold change” value (10 µM) turned out to be 0.00907 and the “probe-labelled cysteine peptide fold change” value (50 µM) is -0.12.
The matching figures for “GCN1_Q92616_648_VLQEALCVISGVPGLK (UniProt Q92616)”: -0.107 and -0.0634.
The matching figures for “GART_P22102_298_FGDPECQVILPLLK (UniProt P22102)”: 0.0971 and 0.165.
The matching figures for “GALNT2_Q10471_496_HMDLCLTVVDRAPGSLIK (UniProt Q10471)”: -0.074 and -0.154.
For “GEMIN5_Q8TEQ6_19_CSDAVPGGLFGFAAR (UniProt Q8TEQ6)”, the “probe-labelled cysteine peptide fold change” value stood at 0.0916 (10 µM) and 0.0885 (50 µM).
Regarding “GALNT1_Q10472_442_NVETNQCLDNMAR (UniProt Q10472)”, the “probe-labelled cysteine peptide fold change” value runs as follows: (10 µM) 0.186; (50 µM) 0.0591.
For the target “GALNT1_Q10472_482_EIRTDDLCLDVSK (UniProt Q10472)”, the “probe-labelled cysteine peptide fold change” value (10 µM) was -0.206 and the “probe-labelled cysteine peptide fold change” value (50 µM) was -0.0133.
The matching figures for “GATAD2B_Q8WXI9_308_GPPKPGLVRTTTPNMNPAINYQPQSSSSVPCQR (UniProt Q8WXI9)”: -0.0855 and -0.263.
The matching figures for “GCC2_Q8IWJ2_817+826_CLQEESVVQCEELK (UniProt Q8IWJ2)”: -0.115 and -0.234.
The matching figures for “GALNT7_Q86SF2_545_GFETAYCIDSMGK (UniProt Q86SF2)”: -0.00732 and 0.0308.
Regarding “GIMAP1_Q8WWP7_98_TDPGCEER (UniProt Q8WWP7)”, the “probe-labelled cysteine peptide fold change” value was -0.0548 (10 µM) and -0.0364 (50 µM).
The matching figures for “GCN1_Q92616_1235_CGLALALNK (UniProt Q92616)”: -0.0728 and -0.138.
Take “GGCT_O75223_144_IICMGAK (UniProt O75223)”: the “probe-labelled cysteine peptide fold change” value runs as follows: (10 µM) -0.0146; (50 µM) -0.017.
The matching figures for “GGNBP2_Q9H3C7_89+92_EVLSALSQLVPCVGCR (UniProt Q9H3C7)”: 0.444 and 0.483.
The matching figures for “GANAB_Q14697_423_WNYRDEADVLEVDQGFDDHNLPCDVIWLDIEHADGK (UniProt Q14697)”: 0.141 and 0.0641.
The matching figures for “GATD1_Q8NB37_122+132_ILQHFHSESKPICAVGHGVAALCCATNEDR (UniProt Q8NB37)”: 0.0703 and 0.0626.
As for “GCLM_P48507_35_CPSTHSEELHDCIQK (UniProt P48507)”, the “probe-labelled cysteine peptide fold change” value runs as follows: (10 µM) 0.12; (50 µM) 0.0298.
For the target “GCLC_P48506_615_CNQIANELCECPELLGSAFR (UniProt P48506)”, the “probe-labelled cysteine peptide fold change” value (10 µM) was -0.00817 and the “probe-labelled cysteine peptide fold change” value (50 µM) came to 0.161.
The matching figures for “GAPVD1_Q14C86_70+71_LIITSAEASPAECCQHAK (UniProt Q14C86)”: 0.106 and -0.203.
The matching figures for “GGA2_Q9UJY4_343_VFQNPAGCMK (UniProt Q9UJY4)”: -0.0198 and -0.301.
The matching figures for “GALNT12_Q8IXK2_231+233_GDVLTFLDCHCECHEGWLEPLLQR (UniProt Q8IXK2)”: -0.00174 and 0.188.
As for “GAN_Q9H2C0_415_KIGCYAAMK (UniProt Q9H2C0)”, the “probe-labelled cysteine peptide fold change” value was -0.132 (10 µM) and -0.109 (50 µM).
Turning to “GBP5_Q96PP8_233_CFIFDLPAHQK (UniProt Q96PP8)”, the “probe-labelled cysteine peptide fold change” value runs as follows: (10 µM) -0.0885; (50 µM) -0.135.
The matching figures for “GEMIN5_Q8TEQ6_441_EGCLAFGTDDGK (UniProt Q8TEQ6)”: 0.16 and -0.0346.
The matching figures for “GART_P22102_134_AFTKPEEACSFILSADFPALVVK (UniProt P22102)”: -0.00392 and -0.0167.
The matching figures for “GBF1_Q92538_1707_IDCFLPHLRDELFK (UniProt Q92538)”: -0.0184 and -0.0975.
“GCN1_Q92616_2255_LIGNESKGEHVPGFCLPK (UniProt Q92616)”: the “probe-labelled cysteine peptide fold change” value reads like this: (10 µM) -0.463; (50 µM) -0.296.
Regarding “GCA_P28676_182_IFFDDYVACCVK (UniProt P28676)”, the “probe-labelled cysteine peptide fold change” value was found to be 0.0461 (10 µM) and 0.0583 (50 µM).
The matching figures for “GALT_P07902_180_GAMMGCSNPHPHCQVWASSFLPDIAQR (UniProt P07902)”: 0.0147 and -0.44.
The matching figures for “GAN_Q9H2C0_452_TQQWTAICPLK (UniProt Q9H2C0)”: 0.0042 and 0.0857.
